# Laboratory results from the supplement of paper PMC3334620.
# In all, about 33,000 sequences were measured (“E-score (-0.5 to 0.5)”: median about -0.016, highest 2% from about 0.3 on). The list shows a part of the results.
# Biological target: T1, Yer184c (UniProt P39961)
# T1 sequence: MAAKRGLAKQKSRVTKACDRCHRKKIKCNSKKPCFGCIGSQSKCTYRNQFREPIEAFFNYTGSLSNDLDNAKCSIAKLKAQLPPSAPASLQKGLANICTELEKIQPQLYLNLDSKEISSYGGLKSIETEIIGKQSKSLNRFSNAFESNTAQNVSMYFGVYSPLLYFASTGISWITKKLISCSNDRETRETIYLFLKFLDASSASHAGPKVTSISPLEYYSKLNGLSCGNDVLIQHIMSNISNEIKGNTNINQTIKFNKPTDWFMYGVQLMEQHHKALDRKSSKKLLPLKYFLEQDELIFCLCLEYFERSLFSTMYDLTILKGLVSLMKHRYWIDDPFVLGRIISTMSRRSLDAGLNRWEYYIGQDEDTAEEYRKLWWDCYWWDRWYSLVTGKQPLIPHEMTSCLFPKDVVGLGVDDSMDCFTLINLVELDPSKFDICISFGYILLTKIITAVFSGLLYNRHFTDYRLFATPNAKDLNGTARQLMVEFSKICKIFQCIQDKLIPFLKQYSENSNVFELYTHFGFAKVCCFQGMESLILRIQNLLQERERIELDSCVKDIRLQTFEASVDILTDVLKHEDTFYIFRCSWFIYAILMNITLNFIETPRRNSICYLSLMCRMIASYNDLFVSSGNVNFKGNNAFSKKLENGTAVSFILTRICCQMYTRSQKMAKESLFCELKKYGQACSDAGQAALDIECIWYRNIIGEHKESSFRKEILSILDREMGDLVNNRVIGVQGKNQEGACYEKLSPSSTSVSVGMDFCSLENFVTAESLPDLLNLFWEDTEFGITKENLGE
# Assay: PBM E-score (8-mer binding enrichment) (E-score (-0.5 to 0.5)); higher = stronger / more preferred TF binding
# Settings: protein concentration: 100 nM; construct: GST-full length
# How it was run: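 Masliner-normalised scans of fluorescent anti-GST signal were the basis for scoring. That signal came from GST-tagged yeast transcription factors applied at about 100-200 nM to double-stranded universal all-10-mer Agilent arrays on fresh or once-stripped slides. Each ungapped eight-base word, pooled with its reverse complement, received an E-score from the Universal PBM Analysis Suite.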
row,Sequence,PBM E-score
1,ACCCTGAT,-0.139
2,AACGATGG,-0.0405
3,ACAGAACT,0.116
4,CTTCGTGA,-0.00663
5,ATGGGTGC,-0.281
6,AGGAGTCC,-0.12
7,AAACACTC,0.0552
8,AGGATCTC,-0.0255
9,CTGCACAA,-0.00089
10,CAACCGAC,0.238
11,AGCACACA,-0.194
12,TCTGCACA,0.0639
13,GACTGTTA,-0.0838
14,CTGTTCCA,-0.166
15,AAGCAGGC,-0.229
16,ATCATCCG,0.165
17,TCGGCACA,0.307
18,ACCCGGCT,0.22
19,GACGGCCC,-0.168
20,CCGAGTTA,0.148
21,AGAAGGGG,-0.34
22,CATCCTTA,-0.193
23,CCGCCTCA,-0.051
24,CCTGCGCG,-0.0323
25,CCAGGGAG,-0.322

row,Sequence,PBM E-score
1,ATTGACTA,-0.0705
2,CTCTTGGA,-0.00521
3,GAAATCTC,0.00773
4,GGCCGTCA,0.0446
5,ATTTGATG,0.115
6,ACGCTCTG,-0.182
7,CCACCATA,-0.167
8,GTCTCCCA,-0.222
9,ACATTCAC,-0.0401
10,ACGTTAAC,0.00042
11,CGAAGATA,0.231
12,ACAGCTGA,-0.0777
13,ACGTCGGA,0.0419
14,AGAATTAT,0.111
15,CATGGACG,-0.0364
16,CGCGCCGC,0.135
17,CGCTCCCG,-0.0233
18,CTGTGCCA,-0.0934
19,ACCAACCC,-0.22
20,ACTGCTCC,-0.0256
21,AGTCGGGC,-0.0974
22,GGAGCTGA,-0.0113
23,AACGCGTG,0.0356
24,CTTCCTCC,-0.0749
25,AGGTTCAG,0.0607

row,Sequence,PBM E-score
1,CTTAAAAA,0.145
2,AAGTCACC,-0.132
3,CTAAGCTA,0.0398
4,AAGGGTAA,-0.0664
5,GATGGTCA,-0.128
6,CCAGAGGA,-0.168
7,AAATCAGG,-0.103
8,ACACGAGG,-0.0752
9,CCGAACGC,0.274
10,CCTCCGAG,0.129
11,TGCAAGAA,0.163
12,GGATCGGA,0.228
13,GAATGGAA,0.112
14,CTTAGATC,-0.0885
15,CTGAACAA,0.155
16,CGAAATCG,0.188
17,ACGGCTAG,0.0936
18,GGTGACTA,-0.0917
19,AACCCATT,-0.0907
20,CCTGATGC,0.0164
21,ACTGTATG,-0.0118
22,CGGCCAGA,0.173
23,CACGTCAC,-0.147
24,GGGATCCA,-0.0871
25,CGTGTAGA,0.119

row,Sequence,PBM E-score
1,CAATATAA,0.243
2,TGCGAGCA,-0.132
3,ATATAACG,0.255
4,CGTACGGC,-0.161
5,AGGTGACG,-0.211
6,AAGAGTCG,0.0268
7,ATTGAACA,0.168
8,ATACCCAG,-0.274
9,CCCGAGAA,0.234
10,CGCAGCGA,-0.0158
11,CGCGCGTC,0.0991
12,ATTGTCGC,0.0896
13,ATATGAGG,-0.119
14,GGCCACAA,-0.135
15,CGAAGCCC,-0.162
16,AAGCAGTG,-0.103
17,GAAACGGA,0.294
18,CGCAGGCC,0.0676
19,CCGGCACG,0.288
20,GGGTCCCA,-0.279
21,AAAGCTAG,-0.00385
22,CTCGAGGC,-0.141
23,CGGCTAAG,0.154
24,CCTCTATA,-0.193
25,ACGAAAAA,0.0994

# A run of entries from the list above, as a working copy:
row,Sequence,PBM E-score
5,AGGTGACG,-0.211
6,AAGAGTCG,0.0268
7,ATTGAACA,0.168
8,ATACCCAG,-0.274
9,CCCGAGAA,0.234
10,CGCAGCGA,-0.0158
11,CGCGCGTC,0.0991

# (next part)

row,Sequence,PBM E-score
1,CCCCGCAG,-0.138
2,GGAAGAAC,0.183
3,AATGTCGA,0.0454
4,CGACGACA,-0.193
5,AGGAGTCA,-0.117
6,ACCACGGC,0.0346
7,CGTTCGAG,-0.0991
8,ACGACTAC,-0.256
9,GCTGTGAC,-0.0758
10,TCTGTTCA,0.0199
11,CTATAGGA,-0.0867
12,ATCCTCCA,-0.0939
13,CAACAGTG,-0.128
14,ACACCCCA,-0.269
15,GAATTATA,0.193
16,ACTATGAG,-0.0187
17,CGATTGAG,0.00869
18,CTACTACA,0.16
19,CGGGCTTC,0.169
20,ACAGGAAC,0.00507
21,TTCATAAA,0.15
22,GGCGACGA,-0.207
23,AAATGCGA,0.0985
24,ACGTGGCA,-0.283
25,AGGTTGTA,0.0467

# Some of the entries above, set out differently.
row	Sequence	PBM E-score
8	AGGATCTC	-0.0255
9	CTGCACAA	-0.00089

# Continued:

row,Sequence,PBM E-score
1,ACCCACGG,-0.117
2,CCGCCTCG,0.0564
3,CAATTGTC,-0.00589
4,ACACTACG,0.0127
5,GCATTGTA,-0.0913
6,GACTTATA,0.21
7,ATCTCGGA,0.31
8,AGTGTCGA,-0.00269
9,CCGTGCCA,-0.127
10,CACGAAAC,-0.0318
11,GGCAAAAC,0.0509
12,CCTCCAAC,-0.246
13,ACGATATA,0.112
14,CACAGAAG,-0.109
15,TCATCCGA,0.34
16,TAGCAGCA,0.00348
17,CCGACGCG,0.132
18,ACATGCTC,-0.0218
19,ATATAAGC,9e-05
20,TAATGGGA,-0.274
21,ATAAAAGG,0.0293
22,GAAATTTA,0.254
23,GGAAAGAC,-0.0831
24,AGTCCAAG,-0.155
25,TCTATTAA,0.136

row,Sequence,PBM E-score
1,GCAATACC,-0.107
2,GCGACCTA,0.0477
3,AGGACAAC,0.0373
4,CCTAAGCG,-0.139
5,GCTGGTGA,0.0279
6,ATGACAGA,0.00579
7,ATTACAGG,0.187
8,ACATATAA,0.23
9,GTTAGCCA,-0.00093
10,AACTACGT,-0.158
11,TAGTGCAA,0.125
12,CATAACGA,-0.0902
13,ATGTGTGC,-0.238
14,CTTGCGGA,0.0397
15,CGCAATAA,0.186
16,ATCTAAGA,0.0758
17,ACGTAACA,-0.016
18,GGACCGAA,0.353
19,AAGGGAAC,-0.176
20,ACGGCCGT,0.176
21,CGGAGGAG,-0.0956
22,ACGCTCGG,0.235
